Data on one molecule can be found in publication PMC8828718.

Amino acid sequences for entries named in this document (tags omitted).
UniProt P53350: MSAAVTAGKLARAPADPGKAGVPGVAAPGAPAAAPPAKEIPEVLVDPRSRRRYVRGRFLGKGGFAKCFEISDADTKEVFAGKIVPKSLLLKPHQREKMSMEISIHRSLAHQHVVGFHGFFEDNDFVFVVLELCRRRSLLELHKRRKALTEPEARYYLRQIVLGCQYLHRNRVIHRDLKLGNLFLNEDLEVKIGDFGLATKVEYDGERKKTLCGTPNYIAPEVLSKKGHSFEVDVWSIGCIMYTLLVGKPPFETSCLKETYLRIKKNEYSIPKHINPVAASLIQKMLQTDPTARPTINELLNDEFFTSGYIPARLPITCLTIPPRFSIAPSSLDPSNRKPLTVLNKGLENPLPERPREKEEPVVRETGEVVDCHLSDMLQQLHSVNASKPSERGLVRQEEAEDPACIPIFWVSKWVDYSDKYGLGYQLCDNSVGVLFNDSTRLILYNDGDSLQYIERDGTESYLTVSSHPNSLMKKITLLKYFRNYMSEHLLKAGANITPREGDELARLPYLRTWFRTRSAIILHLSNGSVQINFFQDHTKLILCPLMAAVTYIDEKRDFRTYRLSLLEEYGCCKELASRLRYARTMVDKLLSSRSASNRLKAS

Results are given in words; binding and its absence hold for the method and conditions named. In cells and extracts the contact can be indirect. Some results given as binding are weak or reduced against the parent protein; the word gives no strength. Sequences can lack the tags named with a protein.

The assay deals with Myc-Plk1 (pRcCMV-Myc-Plk1) (UniProt P53350). The experiment in a line: co-IP; immunoprecipitation from lysates of HEK293T cells transfected with Vrk3 and Plk1, as for the S2 cells.

B1: Vrk3 (3xFLAG-EGFP fusion from pDEST-CMV-3xFLAG-EGFP) (enzyme, UniProt Q8IV63 1-474)
chain: MISFCPDCGKSIQAAFKFCPYCGNSLPVEEHVGSQTFVNPHVSSFQGSKRGLNSSFETSPKKVKWSSTVTSPRLSLFSDGDSSESEDTLSSSERSKGSGSRPPTPKSSPQKTRKSPQVTRGSPQKTSCSPQKTRQSPQTLKRSRVTTSLEALPTGTVLTDKSGRQWKLKSFQTRDNQGILYEAAPTSTLTCDSGPQKQKFSLKLDAKDGRLFNEQNFFQRAAKPLQVNKWKKLYSTPLLAIPTCMGFGVHQDKYRFLVLPSLGRSLQSALDVSPKHVLSERSVLQVACRLLDALEFLHENEYVHGNVTAENIFVDPEDQSQVTLAGYGFAFRYCPSGKHVAYVEGSRSPHEGDLEFISMDLHKGCGPSRRSDLQSLGYCMLKWLYGFLPWTNCLPNTEDIMKQKQKFVDKPGPFVGPCGHWIRPSETLQKYLKVVMALTYEEKPPYAMLRNNLEALLQDLRVSPYDPIGLPMVP
As to B1, the binding entry is “binds”.
